Measured values published in patent publication US20240226211A9, “SEAWEED EXTRACTS, ISOLATED COMPOUNDS, AND METHODS OF TREATMENT” (University of Florida Research Foundation, Incorporated, priority 2017, published 2024).

How the values were obtained:
[1] = In vitro alkylation experiment with excess NAC (or glutathione), LC-MS; details: excess of NAC (or glutathione), 2 h at room temperature
[2] = tested on: gut microbial gene expression; test: Microbial transcriptomic analysis of large intestine; format: in vivo, mouse; details: CY and NP pooled

Compound | chemical reactivity towards NAC (mass tags by LC-MS) [1] | microbial genes differentially expressed between low and high groups [2] | microbial genes differentially expressed versus control mice ([2]; high concentration) [genes] | microbial genes differentially expressed versus control mice ([2]; low concentration) [genes]
cymopol quinone [Compound 5] | Various mass tags were observed |  |  | 
CC(C)=CCC/C(C)=C/Cc1cc(O)c(Br)cc1O [Compound 1, (E)-2-bromo-5-(3,7-dimethylocta-2,6-dien-1-yl)benzene-1,4-diol] | lacked reactivity | 10,107 genes | 141 | 605
